This note sets out measurements from paper PMC10201424.

Experiment [1] has as its target T1, MBP-Mlh2 (chain of the MBP-Mlh1/MBP-Mlh2 complex) (S. cerevisiae) (UniProt Q07980).
T1 sequence: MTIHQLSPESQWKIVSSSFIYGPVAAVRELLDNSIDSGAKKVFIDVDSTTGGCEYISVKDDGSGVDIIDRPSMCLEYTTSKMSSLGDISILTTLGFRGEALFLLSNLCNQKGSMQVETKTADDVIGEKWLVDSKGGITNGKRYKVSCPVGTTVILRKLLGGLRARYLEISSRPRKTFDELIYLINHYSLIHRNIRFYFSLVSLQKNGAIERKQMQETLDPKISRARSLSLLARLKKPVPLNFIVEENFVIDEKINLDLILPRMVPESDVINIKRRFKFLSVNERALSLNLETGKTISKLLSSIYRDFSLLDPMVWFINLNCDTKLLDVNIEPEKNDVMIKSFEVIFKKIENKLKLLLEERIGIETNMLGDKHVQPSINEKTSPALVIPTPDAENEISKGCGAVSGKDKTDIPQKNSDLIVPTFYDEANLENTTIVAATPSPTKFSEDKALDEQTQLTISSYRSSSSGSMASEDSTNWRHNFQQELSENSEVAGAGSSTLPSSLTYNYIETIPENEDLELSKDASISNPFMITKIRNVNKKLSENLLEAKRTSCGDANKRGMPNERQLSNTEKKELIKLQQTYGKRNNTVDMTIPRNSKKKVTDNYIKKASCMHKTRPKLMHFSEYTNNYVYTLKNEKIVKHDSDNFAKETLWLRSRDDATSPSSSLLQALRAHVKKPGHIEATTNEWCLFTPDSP
The experiment is described as follows: cross-linking; XL-MS with DSBU of the 5-subunit Mer3/Mlh1/Mlh2/Top3/Rmi1 complex, proteins 3 μM, 1 h at 25°C; both purified.

Experiment [2] deals with T2, GST-Rmi1 (S. cerevisiae) (UniProt Q02685).
T2 sequence: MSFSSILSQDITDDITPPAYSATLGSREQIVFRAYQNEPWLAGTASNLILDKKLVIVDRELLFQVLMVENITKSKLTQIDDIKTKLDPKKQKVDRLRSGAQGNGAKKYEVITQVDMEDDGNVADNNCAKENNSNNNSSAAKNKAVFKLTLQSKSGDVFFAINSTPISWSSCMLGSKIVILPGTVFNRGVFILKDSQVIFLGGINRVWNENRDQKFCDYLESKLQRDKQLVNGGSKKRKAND
Nature of the experiment: co-purification (glutathione affinity, ResourceS, SEC); untagged Top3 co-expressed with GST-Rmi1 in Hi5 cells and purified through GST-Rmi1.

No constants are given. Whether binding was seen depends on the method and setting. Some results given as binding are weak or reduced against the parent protein; the word gives no strength. Where a sequence is shown, tags or fusion partners need not be part of it.

B1: Top3, untagged (chain of the Top3/Rmi1 complex) (enzyme, UniProt P13099 1-656)
chain: MKVLCVAEKNSIAKAVSQILGGGRSTSRDSGYMYVKNYDFMFSGFPFARNGANCEVTMTSVAGHLTGIDFSHDSHGWGKCAIQELFDAPLNEIMNNNQKKIASNIKREARNADYLMIWTDCDREGEYIGWEIWQEAKRGNRLIQNDQVYRAVFSHLERQHILNAARNPSRLDMKSVHAVGTRIEIDLRAGVTFTRLLTETLRNKLRNQATMTKDGAKHRGGNKNDSQVVSYGTCQFPTLGFVVDRFERIRNFVPEEFWYIQLVVENKDNGGTTTFQWDRGHLFDRLSVLTFYETCIETAGNVAQVVDLKSKPTTKYRPLPLTTVELQKNCARYLRLNAKQSLDAAEKLYQKGFISYPRTETDTFPHAMDLKSLVEKQAQLDQLAAGGRTAWASYAASLLQPENTSNNNKFKFPRSGSHDDKAHPPIHPIVSLGPEANVSPVERRVYEYVARHFLACCSEDAKGQSMTLVLDWAVERFSASGLVVLERNFLDVYPWARWETTKQLPRLEMNALVDIAKAEMKAGTTAPPKPMTESELILLMDTNGIGTDATIAEHIDKIQVRNYVRSEKVGKETYLQPTTLGVSLVHGFEAIGLEDSFAKPFQRREMEQDLKKICEGHASKTDVVKDIVEKYRKYWHKTNACKNTLLQVYDRVKASM
As for B1, the binding entry in experiment [1] and in experiment [2] was “binds” in each case.
